In experiment [1] the target is T1, TSSC4 Δ201–250-GFP (human) (UniProt Q9Y5U2).
T1 sequence: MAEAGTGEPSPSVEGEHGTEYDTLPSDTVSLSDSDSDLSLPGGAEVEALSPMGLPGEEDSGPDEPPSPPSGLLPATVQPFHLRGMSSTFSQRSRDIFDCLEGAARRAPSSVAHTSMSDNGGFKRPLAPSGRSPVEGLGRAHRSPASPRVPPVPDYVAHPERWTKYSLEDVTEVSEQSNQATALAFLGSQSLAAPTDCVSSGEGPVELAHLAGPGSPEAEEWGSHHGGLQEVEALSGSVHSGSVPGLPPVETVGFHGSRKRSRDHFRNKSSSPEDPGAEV
Kind of experiment: co-IP; anti-GFP or anti-FLAG antibodies pre-bound to agarose beads, overnight at 4 °C; lysates of transfected HeLa cells in NET2 buffer (50 mM Tris-HCl pH 7.4, 150 mM NaCl, 0.05% Nonidet P-40); western blot; also from RNase A treated lysates (Fig. 1d). A general note: In western blotting, separated proteins are transferred to a membrane and probed.

Protein sequences, listed by entry. Tags and fused reporters are not part of them.
UniProt Q99459: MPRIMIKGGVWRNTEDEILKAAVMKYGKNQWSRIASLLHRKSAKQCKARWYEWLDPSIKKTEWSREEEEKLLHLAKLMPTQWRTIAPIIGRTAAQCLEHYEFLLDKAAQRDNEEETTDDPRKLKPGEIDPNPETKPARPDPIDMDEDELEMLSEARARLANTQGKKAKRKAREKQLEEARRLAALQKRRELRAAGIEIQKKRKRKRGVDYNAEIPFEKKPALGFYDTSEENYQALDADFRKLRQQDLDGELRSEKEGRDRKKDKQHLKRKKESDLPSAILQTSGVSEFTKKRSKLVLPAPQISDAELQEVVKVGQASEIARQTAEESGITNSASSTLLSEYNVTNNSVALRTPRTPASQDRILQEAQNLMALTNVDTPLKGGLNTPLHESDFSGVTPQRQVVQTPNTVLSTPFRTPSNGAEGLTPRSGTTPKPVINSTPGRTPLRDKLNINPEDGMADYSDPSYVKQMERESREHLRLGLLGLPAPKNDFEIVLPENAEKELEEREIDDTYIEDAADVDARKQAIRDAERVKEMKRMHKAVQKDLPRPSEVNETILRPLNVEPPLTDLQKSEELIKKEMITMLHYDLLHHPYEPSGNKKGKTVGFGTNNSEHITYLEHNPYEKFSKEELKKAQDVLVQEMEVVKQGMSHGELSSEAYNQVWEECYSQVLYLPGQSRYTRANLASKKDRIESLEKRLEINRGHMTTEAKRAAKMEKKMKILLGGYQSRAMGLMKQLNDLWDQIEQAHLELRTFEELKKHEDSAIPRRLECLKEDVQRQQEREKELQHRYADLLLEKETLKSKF
UniProt O75643: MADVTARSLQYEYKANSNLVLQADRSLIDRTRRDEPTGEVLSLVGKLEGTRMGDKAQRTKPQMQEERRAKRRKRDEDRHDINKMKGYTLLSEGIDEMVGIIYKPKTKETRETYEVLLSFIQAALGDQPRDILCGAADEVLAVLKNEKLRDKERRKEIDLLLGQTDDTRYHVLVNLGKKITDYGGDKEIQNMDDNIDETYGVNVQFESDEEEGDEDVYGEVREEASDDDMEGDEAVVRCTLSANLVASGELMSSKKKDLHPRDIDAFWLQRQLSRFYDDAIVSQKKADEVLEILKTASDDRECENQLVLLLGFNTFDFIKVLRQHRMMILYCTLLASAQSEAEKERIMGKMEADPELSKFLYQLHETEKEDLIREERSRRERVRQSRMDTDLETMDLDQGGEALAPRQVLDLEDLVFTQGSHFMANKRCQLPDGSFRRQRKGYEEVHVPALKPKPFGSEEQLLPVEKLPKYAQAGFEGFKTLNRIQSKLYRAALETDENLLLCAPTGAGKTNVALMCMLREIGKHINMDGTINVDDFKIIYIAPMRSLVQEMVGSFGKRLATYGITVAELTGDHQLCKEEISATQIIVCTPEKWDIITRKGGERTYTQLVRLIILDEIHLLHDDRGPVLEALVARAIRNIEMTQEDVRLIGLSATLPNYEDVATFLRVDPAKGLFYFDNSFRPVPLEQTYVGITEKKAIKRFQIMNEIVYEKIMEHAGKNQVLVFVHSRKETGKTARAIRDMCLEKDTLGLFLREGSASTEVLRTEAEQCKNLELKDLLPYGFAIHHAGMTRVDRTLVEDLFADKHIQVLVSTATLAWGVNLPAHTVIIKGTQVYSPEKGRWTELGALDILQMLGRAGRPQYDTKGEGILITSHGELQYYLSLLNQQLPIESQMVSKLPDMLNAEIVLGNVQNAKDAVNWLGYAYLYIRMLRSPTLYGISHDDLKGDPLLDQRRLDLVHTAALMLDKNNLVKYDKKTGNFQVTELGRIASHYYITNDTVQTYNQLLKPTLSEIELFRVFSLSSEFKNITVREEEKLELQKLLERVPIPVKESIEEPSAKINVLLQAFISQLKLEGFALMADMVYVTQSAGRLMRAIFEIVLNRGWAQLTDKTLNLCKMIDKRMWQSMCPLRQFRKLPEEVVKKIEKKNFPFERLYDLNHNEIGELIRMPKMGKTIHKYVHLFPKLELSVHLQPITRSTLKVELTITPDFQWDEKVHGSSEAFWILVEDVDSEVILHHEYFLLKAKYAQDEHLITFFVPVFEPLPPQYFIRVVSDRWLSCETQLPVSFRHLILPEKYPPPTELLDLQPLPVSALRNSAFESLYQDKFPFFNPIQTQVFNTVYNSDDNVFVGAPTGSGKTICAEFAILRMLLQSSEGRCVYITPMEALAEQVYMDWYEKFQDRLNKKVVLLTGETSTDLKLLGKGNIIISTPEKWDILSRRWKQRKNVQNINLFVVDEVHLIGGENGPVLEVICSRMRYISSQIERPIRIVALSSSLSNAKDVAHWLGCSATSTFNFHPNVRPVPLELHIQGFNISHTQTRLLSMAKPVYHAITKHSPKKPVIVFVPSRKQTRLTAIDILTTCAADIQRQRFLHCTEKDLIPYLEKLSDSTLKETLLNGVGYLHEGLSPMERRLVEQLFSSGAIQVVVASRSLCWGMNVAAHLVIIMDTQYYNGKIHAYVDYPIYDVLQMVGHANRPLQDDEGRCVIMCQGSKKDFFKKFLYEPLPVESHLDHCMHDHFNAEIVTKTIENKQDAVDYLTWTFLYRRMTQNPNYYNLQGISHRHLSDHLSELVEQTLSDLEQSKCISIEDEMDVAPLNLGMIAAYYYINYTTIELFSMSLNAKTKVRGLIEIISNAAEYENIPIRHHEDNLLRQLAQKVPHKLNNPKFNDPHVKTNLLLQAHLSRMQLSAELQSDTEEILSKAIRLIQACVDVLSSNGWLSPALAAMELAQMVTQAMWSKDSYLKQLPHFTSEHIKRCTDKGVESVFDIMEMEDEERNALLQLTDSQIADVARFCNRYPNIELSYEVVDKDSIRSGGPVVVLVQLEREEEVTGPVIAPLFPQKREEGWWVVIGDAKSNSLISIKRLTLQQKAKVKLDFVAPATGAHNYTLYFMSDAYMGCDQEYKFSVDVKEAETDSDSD

Experiment [2] addresses T2, TSSC4 ΔHom4-GFP (human) (UniProt Q9Y5U2).
T2 sequence: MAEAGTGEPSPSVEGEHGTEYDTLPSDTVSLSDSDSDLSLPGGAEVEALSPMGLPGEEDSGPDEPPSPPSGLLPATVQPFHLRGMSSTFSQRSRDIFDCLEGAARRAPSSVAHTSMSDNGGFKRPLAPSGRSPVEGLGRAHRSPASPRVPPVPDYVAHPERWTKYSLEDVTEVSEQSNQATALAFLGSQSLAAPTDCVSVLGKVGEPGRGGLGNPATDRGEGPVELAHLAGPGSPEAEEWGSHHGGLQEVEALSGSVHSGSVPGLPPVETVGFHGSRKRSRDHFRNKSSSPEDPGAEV
The description is as above.

Experiment [3] has as its target TSSC4-FLAG (human) (UniProt Q9Y5U2). Described as above.
Experiment [4] has as its target TSSC4-GFP (human) (UniProt Q9Y5U2). The description is as above.
In experiment [5] the target is T3, TSSC4 Δ151–200-GFP (human) (UniProt Q9Y5U2).
T3 sequence: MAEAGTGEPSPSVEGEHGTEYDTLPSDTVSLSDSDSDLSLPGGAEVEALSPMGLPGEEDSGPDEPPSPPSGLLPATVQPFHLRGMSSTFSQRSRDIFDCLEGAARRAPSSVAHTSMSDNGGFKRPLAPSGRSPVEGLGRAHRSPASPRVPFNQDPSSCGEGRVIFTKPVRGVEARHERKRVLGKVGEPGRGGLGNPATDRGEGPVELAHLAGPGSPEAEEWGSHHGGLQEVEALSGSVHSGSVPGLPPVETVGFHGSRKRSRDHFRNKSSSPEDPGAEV
The description is as above.

For experiment [6], the target named is TSSC4 Hom4-2_Ala-GFP (human) (UniProt Q9Y5U2). Described as above.
In experiment [7] the target is T4, TSSC4 ΔHom2-GFP (human) (UniProt Q9Y5U2).
T4 sequence: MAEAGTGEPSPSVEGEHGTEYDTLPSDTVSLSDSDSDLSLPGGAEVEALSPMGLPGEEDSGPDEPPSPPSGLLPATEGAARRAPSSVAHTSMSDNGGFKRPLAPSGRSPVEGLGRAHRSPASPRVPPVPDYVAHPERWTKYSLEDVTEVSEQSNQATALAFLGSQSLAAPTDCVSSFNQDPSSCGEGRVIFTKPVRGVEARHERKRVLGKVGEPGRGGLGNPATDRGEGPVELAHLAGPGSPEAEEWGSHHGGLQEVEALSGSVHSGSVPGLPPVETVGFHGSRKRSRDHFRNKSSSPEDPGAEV
The description is as above.

The target in experiment [8] is T5, TSSC4 Δ51–100-GFP (human) (UniProt Q9Y5U2).
T5 sequence: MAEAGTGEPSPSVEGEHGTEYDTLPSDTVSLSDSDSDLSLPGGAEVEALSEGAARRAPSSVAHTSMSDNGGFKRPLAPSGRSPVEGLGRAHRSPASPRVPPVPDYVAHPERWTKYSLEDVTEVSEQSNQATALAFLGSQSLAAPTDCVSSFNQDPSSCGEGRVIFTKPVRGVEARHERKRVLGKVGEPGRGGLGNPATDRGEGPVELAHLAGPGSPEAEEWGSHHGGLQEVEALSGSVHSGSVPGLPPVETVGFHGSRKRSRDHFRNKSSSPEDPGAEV
The experiment is described as above.

In experiment [9] the target is TSSC4-DDX6-dsRed (human) (UniProt Q9Y5U2). Kind of experiment: P-body tethering assay; TSSC4-DDX6-dsRed targeted to cytoplasmic P-bodies in HeLa cells; co-recruitment of GFP- or FLAG-tagged proteins seen by fluorescence microscopy, 50 P-bodies quantified for each condition.

No constants are given. Whether binding was seen depends on the method and setting. For some assays here: Binding seen in cells or lysates may run through a third protein. Some binding calls cover weakened binding; strength is not graded here. For some assays here: Sequences can lack the tags named with a protein.

With CDC5L (from UniProt Q99459 1-802), the binding result in experiment [1] is reported as “binds weakly”; in experiment [2] it was “binds weakly”; in [3] it was “binds”; in experiment [4], “binds”; in [5], “binds”.
On to SNRNP200 (from UniProt O75643 1-2136), for which the binding result in experiment [1], in [2], in [6], in experiment [4], in [5] and in experiment [7] was “binds” each time. For the same substance, the binding result in experiment [8] is recorded as “binds”.
With “SNRNP200-GFP (from UniProt O75643 1-2136)”, in experiment [9], the binding result is reported as “binds”.
Turning to TSSC4-FLAG (from UniProt Q9Y5U2 1-329), in [3], the binding entry is reported as “no binding”.
